Source: the supplement of paper PMC10626197
Structures can show the parent of a compound that is named as a salt. Several reference drugs read as weak here; read low effects with care.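 The breast cancer cell line MCF7 was treated with drug pairs over a dose grid. Each plate included DMSO-only wells as the untreated reference and a doxorubicin series as the total-kill control. These viability readings have no hit threshold applied.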

System: MCF7
Experiment: cell viability relative to DMSO control (raw); higher = more viable cells
Conditions: exposure time 72 h
Description: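 MCF7 cells, 1000 cells/well in 384-well plates, treated with 6x6 dose matrices of drug pairs (1:3 serial dilutions, DMSO as lowest dose) for 72 h at 37 °C. Viability read by CellTiter-Glo luminescence, 3 biological replicates. Normalised viability sets 0% at the highest doxorubicin dose and 100% at the 0,0 µM control per combination.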

CCCS(=O)(=O)Nc1ccc(F)c(C(=O)c2c[nH]c3ncc(-c4ccc(Cl)cc4)cc23)c1F [Vemurafenib] + CN1CCN(CCCN2c3ccccc3Sc3ccc(C(F)(F)F)cc32)CC1 [Trifluoperazine 2HCl]
cell viability [%]
Conditions | drug 2 concentration 0 µM | drug 2 concentration 0.185185 µM | drug 2 concentration 0.555556 µM | drug 2 concentration 1.66667 µM | drug 2 concentration 5 µM | drug 2 concentration 15 µM
drug 1 concentration 0.154321 µM | 97.6 | 96.6 | 102 | 101 | 89.3 | 17.6
drug 1 concentration 0.462963 µM | 106 | 116 | 105 | 104 | 110 | 22.9
drug 1 concentration 1.38889 µM | 98.8 | 101 | 99.8 | 103 | 98.9 | 22.3
drug 1 concentration 4.16667 µM | 113 | 116 | 107 | 101 | 102 | 21.8
drug 1 concentration 12.5 µM | 98 | 97.5 | 97.4 | 100 | 78.1 | 1.49

CCCS(=O)(=O)Nc1ccc(F)c(C(=O)c2c[nH]c3ncc(-c4ccc(Cl)cc4)cc23)c1F [Vemurafenib] + CN(C)C(=O)c1cc2cnc(Nc3ccc(N4CCNCC4)cn3)nc2n1C1CCCC1 [Ribociclib]
cell viability [%]
Conditions | drug 2 concentration 0 µM | drug 2 concentration 0.123457 µM | drug 2 concentration 0.37037 µM | drug 2 concentration 1.11111 µM | drug 2 concentration 3.33333 µM | drug 2 concentration 10 µM
drug 1 concentration 0.154321 µM | 86.1 | 91.5 | 91.3 | 85.2 | 83.1 | 77.5
drug 1 concentration 0.462963 µM | 95.5 | 90.3 | 90.6 | 89.4 | 89 | 81.7
drug 1 concentration 1.38889 µM | 93.5 | 91.1 | 87.5 | 88 | 84.7 | 79.1
drug 1 concentration 4.16667 µM | 96.2 | 92.4 | 88.7 | 85.8 | 82 | 78.6
drug 1 concentration 12.5 µM | 94.4 | 96.9 | 90.6 | 86.3 | 79.7 | 67.4

CCCS(=O)(=O)Nc1ccc(F)c(C(=O)c2c[nH]c3ncc(-c4ccc(Cl)cc4)cc23)c1F [Vemurafenib] + COc1cc(Nc2ncc3c(n2)-c2ccc(Cl)cc2C(c2c(F)cccc2OC)=NC3)ccc1C(=O)O [Alisertib]
cell viability [%]
Conditions | drug 2 concentration 0 µM | drug 2 concentration 0.0617284 µM | drug 2 concentration 0.185185 µM | drug 2 concentration 0.555556 µM | drug 2 concentration 1.66667 µM | drug 2 concentration 5 µM
drug 1 concentration 0.154321 µM | 87.5 | 90.1 | 82.5 | 77.2 | 77.6 | 73.9
drug 1 concentration 0.462963 µM | 80.8 | 81.7 | 82.2 | 76.9 | 76.1 | 72.7
drug 1 concentration 1.38889 µM | 86.8 | 87 | 83.9 | 77.9 | 79.6 | 74
drug 1 concentration 4.16667 µM | 84 | 82.6 | 78.4 | 78.2 | 68.9 | 72.3
drug 1 concentration 12.5 µM | 83.4 | 74.9 | 73.7 | 74 | 68.3 | 64.2

CCCS(=O)(=O)Nc1ccc(F)c(C(=O)c2c[nH]c3ncc(-c4ccc(Cl)cc4)cc23)c1F [Vemurafenib] + N#CC1(c2ccc(NC(=O)c3cccnc3NCc3ccncc3)cc2)CCCC1 [Apatinib]
cell viability [%]
Conditions | drug 2 concentration 0 µM | drug 2 concentration 0.0617284 µM | drug 2 concentration 0.185185 µM | drug 2 concentration 0.555556 µM | drug 2 concentration 1.66667 µM | drug 2 concentration 5 µM
drug 1 concentration 0.154321 µM | 106 | 105 | 111 | 109 | 103 | 96.8
drug 1 concentration 0.462963 µM | 119 | 122 | 115 | 119 | 114 | 95.6
drug 1 concentration 1.38889 µM | 92.9 | 114 | 121 | 111 | 109 | 92.2
drug 1 concentration 4.16667 µM | 117 | 117 | 116 | 116 | 108 | 97
drug 1 concentration 12.5 µM | 97.9 | 97.9 | 101 | 92.6 | 83.2 | 66.6

CC[C@]1(O)C[C@@H]2CN(CCc3c([nH]c4ccccc34)[C@@](C(=O)OC)(c3cc4c(cc3OC)N(C)[C@H]3[C@@](O)(C(=O)OC)[C@H](OC(C)=O)[C@]5(CC)C=CCN6CC[C@]43[C@@H]65)C2)C1 [Vinblastine] + CN1CCN(C2=Nc3cc(Cl)ccc3Nc3ccccc32)CC1 [Clozapine]
cell viability [%]
Conditions | drug 2 concentration 0 µM | drug 2 concentration 0.123457 µM | drug 2 concentration 0.37037 µM | drug 2 concentration 1.11111 µM | drug 2 concentration 3.33333 µM | drug 2 concentration 10 µM
drug 1 concentration 0.00246914 µM | 93.2 | 90.8 | 87.2 | 89.7 | 88.1 | 84.8
drug 1 concentration 0.00740741 µM | 94 | 96.4 | 96.7 | 102 | 100 | 95.2
drug 1 concentration 0.0222222 µM | 97.9 | 93.8 | 97.6 | 97.5 | 88.5 | 80.9
drug 1 concentration 0.0666667 µM | 94.7 | 95.4 | 97.1 | 99.8 | 90.1 | 78.6
drug 1 concentration 0.2 µM | 95.2 | 90.7 | 90.2 | 91.4 | 85 | 73.5

CC[C@]1(O)C[C@@H]2CN(CCc3c([nH]c4ccccc34)[C@@](C(=O)OC)(c3cc4c(cc3OC)N(C)[C@H]3[C@@](O)(C(=O)OC)[C@H](OC(C)=O)[C@]5(CC)C=CCN6CC[C@]43[C@@H]65)C2)C1 [Vinblastine] + CN(C)CCOc1ccc(/C(=C(/CCCl)c2ccccc2)c2ccccc2)cc1 [Toremifene (citrate)]
cell viability [%]
Conditions | drug 2 concentration 0 µM | drug 2 concentration 0.432099 µM | drug 2 concentration 1.2963 µM | drug 2 concentration 3.88889 µM | drug 2 concentration 11.6667 µM | drug 2 concentration 35 µM
drug 1 concentration 0.00246914 µM | 85 | 83.9 | 77 | 70.5 | 22.7 | 0.445
drug 1 concentration 0.00740741 µM | 88.9 | 91.3 | 91.4 | 71.4 | 18.3 | 0.496
drug 1 concentration 0.0222222 µM | 94.8 | 99.8 | 93.3 | 72 | 20.7 | 0.449
drug 1 concentration 0.0666667 µM | 88.6 | 87.8 | 83.5 | 54.9 | 20 | 0.503
drug 1 concentration 0.2 µM | 86.2 | 88.8 | 81.8 | 54.6 | 15.7 | 0.777

CC[C@]1(O)C[C@@H]2CN(CCc3c([nH]c4ccccc34)[C@@](C(=O)OC)(c3cc4c(cc3OC)N(C)[C@H]3[C@@](O)(C(=O)OC)[C@H](OC(C)=O)[C@]5(CC)C=CCN6CC[C@]43[C@@H]65)C2)C1 [Vinblastine] + Cc1ncc(NC(=O)c2ccc(CN3CCN(C)CC3)c(C(F)(F)F)c2)cc1Nc1nccc(-c2cccnc2)n1 [Flumatinib (mesylate)]
cell viability [%]
Conditions | drug 2 concentration 0 µM | drug 2 concentration 0.617284 µM | drug 2 concentration 1.85185 µM | drug 2 concentration 5.55556 µM | drug 2 concentration 16.6667 µM | drug 2 concentration 50 µM
drug 1 concentration 0.00246914 µM | 72.4 | 71.83 | 68.9 | 73.7 | 1.3 | 0.2
drug 1 concentration 0.00740741 µM | 76.8 | 78.7 | 77.2 | 82.1 | 2.27 | 0.161
drug 1 concentration 0.0222222 µM | 79.7 | 81.2 | 85.3 | 86.9 | 1.01 | 0.282
drug 1 concentration 0.0666667 µM | 75.3 | 79.2 | 78.55 | 66.5 | 1.24 | 0.149
drug 1 concentration 0.2 µM | 73.9 | 79 | 73.7 | 64.6 | 50.5 | 0.415

CC[C@]1(O)C[C@H]2CN(CCc3c([nH]c4ccccc34)[C@@](C(=O)OC)(c3cc4c(cc3OC)N(C=O)[C@H]3[C@@](O)(C(=O)OC)[C@H](OC(C)=O)[C@]5(CC)C=CCN6CC[C@]43[C@@H]65)C2)C1 [Vincristine] + C=CC(=O)Nc1cccc(Nc2nc(Nc3ccc(OCCOC)cc3)ncc2F)c1 [Spebrutinib]
cell viability [%]
Conditions | drug 2 concentration 0 µM | drug 2 concentration 0.37037 µM | drug 2 concentration 1.11111 µM | drug 2 concentration 3.33333 µM | drug 2 concentration 10 µM | drug 2 concentration 30 µM
drug 1 concentration 0.0037037 µM | 75.3 | 81.1 | 79.3 | 70.9 | 52.7 | 8.76
drug 1 concentration 0.0111111 µM | 86.6 | 92.1 | 88.6 | 73.3 | 56.2 | 11.9
drug 1 concentration 0.0333333 µM | 80 | 87.4 | 87.6 | 78.6 | 55.3 | 16.1
drug 1 concentration 0.1 µM | 84.7 | 90.7 | 88.3 | 79.5 | 61.3 | 11.1
drug 1 concentration 0.3 µM | 80.2 | 89.9 | 86.2 | 85.8 | 64.3 | 7.62

CC[C@]1(O)C[C@H]2CN(CCc3c([nH]c4ccccc34)[C@@](C(=O)OC)(c3cc4c(cc3OC)N(C=O)[C@H]3[C@@](O)(C(=O)OC)[C@H](OC(C)=O)[C@]5(CC)C=CCN6CC[C@]43[C@@H]65)C2)C1 [Vincristine] + CCCNC(=O)c1cn2ncnc(Nc3cc(C(=O)NC4CC4)ccc3C)c2c1C [BMS-582949 (hydrochloride)]
cell viability [%]
Conditions | drug 2 concentration 0 µM | drug 2 concentration 0.37037 µM | drug 2 concentration 1.11111 µM | drug 2 concentration 3.33333 µM | drug 2 concentration 10 µM | drug 2 concentration 30 µM
drug 1 concentration 0.0037037 µM | 106 | 98.8 | 105 | 96.6 | 95.3 | 92.6
drug 1 concentration 0.0111111 µM | 117 | 116 | 116 | 113 | 105 | 93.1
drug 1 concentration 0.0333333 µM | 117.5 | 111 | 115 | 115 | 103 | 99.8
drug 1 concentration 0.1 µM | 99.8 | 102 | 100.9 | 98.2 | 93.7 | 86.52
drug 1 concentration 0.3 µM | 97.5 | 103 | 102 | 98.3 | 103 | 91.1
